# Measured values reported in PMC9148072, “Design, Cytotoxicity and Antiproliferative Activity of 4-Amino-5-methyl-thieno[2,3-d]pyrimidine-6-carboxylates against MFC-7 and MDA-MB-231 Breast Cancer Cell Lines” (Molecules, 2022).
# System: MDA-MB-231 cell line
# Assay: MTT antiproliferative assay, MDA-MB-231
# Format: cell-based, human
# Conditions: LEI = pIC50/HA
# Description: The compounds were studied for antiproliferative activity by standard MTT dye-reduction assay. Cell cultures from MCF-10A, MCF-7 and MDAMB-231 cell lines were incubated for 72 h in the presence of the tested substances in a wide range of concentrations. At the MCF-10A and MDA-MB-231 cell lines, compound 4 was applied in the range from 0.5 to 100 µg/mL, and all others from 4 to 1000 µg/mL.
# All breast cell lines (MCF-10A, MCF-7 and MDA-MB-231) were purchased from the American Type Culture Collection—ATCC (Manassas, VA, USA). The MCF-7 and MDA-MB-231 were cultivated in Dulbecco’s Modified Eagle’s Medium (DMEM) supplemented with 10% fetal bovine serum (FBS), 1% sodium pyruvate, 1% MEM nonessential amino acids (NEAA) without antibiotics. The nontumorigenic breast cell line (MCF-10A) was cultivated in DMEM medium (Sigma-Aldrich, St. Louis, MO, USA) supplemented with 10% FBS, 1% sodium pyruvate, 1% nonessential amino acids (NEAA), 20 ng/mL human epithelia growth factor (hEGF), 10 μg/mL insulin, and 0.5 μg/mL hydrocortisone without antibiotics. All cell lines were maintained in a humidified atmosphere with 5% CO2 at 37 °C.
# Using the standard MTT dye-reduction assay, described by Mosmann the antiproliferative activity was tested. The method is based on the metabolism of the tetrazolium salt MTT to insoluble formazan. The formazan absorption was registered using a microplate reader at λ = 540 nm. The measured absorption is an indicator of cell viability and metabolic activity. Antiproliferative activities were expressed as IC50 values (concentrations required for 50% inhibition of cell growth), calculated using nonlinear regression analysis (GraphPad Software, San Diego, CA, USA).
row,SMILES,LEI in MDA-MB-31 test
1,"CCOC(=O)c1sc2nc(CCn3c(=N)[nH]c4ccccc43)[nH]c(=O)c2c1C [B, reference compound]",0.28
2,"CCOC(=O)c1sc2nc(Cc3ccccc3)nc(N)c2c1C [Compound 2, Ethyl 4-Amino-2-benzyl-5-methyl-thieno[2,3-d]pyrimidine-6-carboxylate]",0.346
3,"CCOC(=O)c1sc2nc(Cc3ccc([N+](=O)[O-])cc3)nc(N)c2c1C [Compound 3, Ethyl 4-Amino-5-methyl-2-(4-nitrobenzyl) Thieno [2,3-d] Pyrimidine-6-carboxylate]",0.269
4,"CCOC(=O)c1sc2nc(-c3cc(OC)c(OC)c(OC)c3)nc(N)c2c1C [Compound 4, Ethyl 4-Amino-5-methyl-2-(3,4,5-trimethoxyphenyl)thieno [2,3-d]Pyrimidine-6-carboxylate]",0.286
5,"CCOC(=O)c1sc2nc(-c3ccncc3)nc(N)c2c1C.Cl [Compound 6, Ethyl 4-Amino-5-methyl-2-(pyridin-4-yl)thieno[2,3-d]pyrimidine-6-carboxylate hydrochloride]",0.318
